Source: publication PMC3597553
These are yes or no findings as the source states them, for the method shown. Binding seen in cells or lysates may run through a third protein. Some entries that bind do so weakly or less than the wild type.

Amino acid sequences for entries named in this document (tags omitted).
UniProt P25095: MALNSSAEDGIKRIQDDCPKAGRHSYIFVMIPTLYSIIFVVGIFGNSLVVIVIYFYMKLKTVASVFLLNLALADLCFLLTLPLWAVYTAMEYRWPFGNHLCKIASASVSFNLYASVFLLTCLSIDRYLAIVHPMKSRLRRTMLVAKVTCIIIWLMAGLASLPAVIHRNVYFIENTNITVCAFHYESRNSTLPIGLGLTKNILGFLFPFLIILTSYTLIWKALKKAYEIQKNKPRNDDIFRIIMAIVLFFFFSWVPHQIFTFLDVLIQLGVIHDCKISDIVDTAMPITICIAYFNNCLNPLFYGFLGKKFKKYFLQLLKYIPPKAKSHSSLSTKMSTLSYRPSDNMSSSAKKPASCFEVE
UniProt P32120: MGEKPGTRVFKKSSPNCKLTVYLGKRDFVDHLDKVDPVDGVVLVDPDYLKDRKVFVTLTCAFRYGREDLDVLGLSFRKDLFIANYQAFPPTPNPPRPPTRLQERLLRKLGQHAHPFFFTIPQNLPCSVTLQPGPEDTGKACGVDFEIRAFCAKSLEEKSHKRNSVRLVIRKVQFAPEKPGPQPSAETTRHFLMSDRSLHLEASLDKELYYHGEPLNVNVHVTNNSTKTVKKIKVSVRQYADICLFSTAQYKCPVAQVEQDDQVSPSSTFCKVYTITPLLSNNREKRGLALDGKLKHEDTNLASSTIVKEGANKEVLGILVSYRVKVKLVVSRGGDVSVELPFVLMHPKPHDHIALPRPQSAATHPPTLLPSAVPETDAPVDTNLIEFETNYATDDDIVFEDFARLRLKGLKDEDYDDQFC

Biological target: angiotensin II type 1 receptor tagged with Renilla luciferase (AT1R-Rluc8) (not stated (rat AT1a and human AT1R plasmids are listed)) (UniProt P25095)
Test: FRET or BRET; BRET1 measured in real time in living HEK293 cells co-expressing AT1R-Rluc and YFP-β-arrestin2; AngII concentration-response; in absence or presence of untagged TPαR; cells in PBS with 0.5 mM Ca2+ and 0.5 mM Mg2+

YFP-tagged bovine β-arrestin2 (from UniProt P32120 1-420)
binding: binds
